Assay results as given in patent publication US9610367B2, “Particle and contrast agent having the particle” (CANON KABUSHIKI KAISHA, priority 2010, dated 2017).
At least one read-out could not be matched to a standard name with certainty.

Test: solubility of ICG in chloroform when phospholipid was added (absorption curve integral)
Format: physicochemical
Settings: 2 molar equivalents of phospholipid added, vs ICG alone

SMILES	improvement of solubility of ICG in chloroform
CCCCCCCCCCCCCCCCCC(=O)OC[C@H](COP(=O)([O-])OCC[N+](C)(C)C)OC(=O)CCCCCCCCCCCCCCCCC [DSPC, 1,2-Distearoyl-sn-glycero-3-phosphocholine]	approximately 50 times
CCCCCCCCCCCCCCCCCC(=O)OC[C@H](COP(=O)(O)OCCN)OC(=O)CCCCCCCCCCCCCCCCC [DSPE, 1,2-Distearoyl-sn-glycero-3-phosphoethanolamine]	approximately 50 times
CCCCCCCCCCCCCCCCCC(=O)OC[C@H](COP(=O)(O)OC[C@H](N)C(=O)O)OC(=O)CCCCCCCCCCCCCCCCC [DSPS, 1,2-Distearoyl-sn-glycero-3-phospho-L-serine]	approximately 50 times
CCCCCCCC/C=C\CCCCCCCC(=O)OC[C@H](COP(=O)(O)OCCN)OC(=O)CCCCCCC/C=C\CCCCCCCC [DOPE, 1,2-Dioleoyl-sn-glycero-3-phosphoethanolamine]	approximately 50 times

Test: solubility of ICG in dichloromethane when phospholipid was added
Format: physicochemical
Settings: 2 molar equivalents of phospholipid added, vs ICG alone
Protocol: 2 molar equivalents of a phospholipid was added to 5.5 mg of ICG. As the phospholipid, DSPC or DOPE was used. Each of these ICG-phospholipid mixtures was dissolved in 2 mL of dichloromethane. Controls were prepared by dissolving in ICG in methanol or dichloromethane. All these ICG solutions were filtered with a filter having a pore size of 0.2 μm and then diluted 500-fold with dichloromethane.

SMILES	improvement of solubility of ICG in dichloromethane
CCCCCCCCCCCCCCCCCC(=O)OC[C@H](COP(=O)([O-])OCC[N+](C)(C)C)OC(=O)CCCCCCCCCCCCCCCCC [DSPC, 1,2-Distearoyl-sn-glycero-3-phosphocholine]	approximately six
CCCCCCCC/C=C\CCCCCCCC(=O)OC[C@H](COP(=O)(O)OCCN)OC(=O)CCCCCCC/C=C\CCCCCCCC [DOPE, 1,2-Dioleoyl-sn-glycero-3-phosphoethanolamine]	approximately six
